From patent publication US9487500B2, “Compounds and compositions thereof” (Inhibikase Therapeutics, Inc., priority 2012, dated 2016)
pEC50: −log10 of the molar value.

Test system: VEE virus
Assay: microbe, parasite or virus in culture
Conditions: Alphavirus, read-out: EC50 (micromolar)

SMILES: Cc1ccc(NC(=O)c2ccc(CN3CCN(C)CC3)cc2)cc1Nc1nccc(-c2cccnc2)n1 [imatinib, 4-[(4-methylpiperazin-1-yl)methyl]-N-(4-methyl-3-{[4-(pyridin-3-yl)pyrimidin-2-yl]amino}phenyl)benzamide, reference compound]
- pEC50: 5.22
